Data source: PubChem BioAssay AID1259308 (NCATS, 2017)
Screen: 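Knock-downs that increase output of a recombinant reporter protein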 (primary screen). Cells: human HEK293 embryonic kidney cells stably expressing firefly luciferase (HEK-CMV-Luc2-Hygro). Reagents: single siRNA against human genes, 0.8 pmol siRNA per well. Timing: 72 h. Measurement: 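Reporter luminescence and viable-cell signal on separate replicate plates, given as percent of non-targeting control and median/MAD z-scores, plus per-cell luciferase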. Reading the numbers: total luciferase, z-score and total luciferase, % of control: higher = more reporter protein produced; luciferase per cell, z-score: higher = more reporter output per viable cell; viable cells, % of control: higher = more viable cells. Active means: 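Active when the median/MAD z-score for overall luciferase is greater than 3; a gene was taken forward for validation with new siRNAs if at least two of its three siRNAs passed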. Meaning of the calls: active = raised luciferase; inactive = no rise.
In all, the deposit lists about 59,000 reagents; shown is a random part of them. In the full data, about 1,510 (2.6%) got an active call. 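Calls use total luciferase alone and ignore viability, so some active siRNAs may act by altering cell number.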 Reagents against one gene are numbered here.

gene	reagent no.	total luciferase, z-score	total luciferase, % of control	luciferase per cell, z-score	viable cells, % of control	call
TSLIG3B (tRNA splicing ligase complex subunit 3B)	1	0.113	84.1	-0.0168	94.4	inactive
TSLIG3B (tRNA splicing ligase complex subunit 3B)	2	0.225	86.4	0.514	84.3	inactive
TSLIG3B (tRNA splicing ligase complex subunit 3B)	3	-1.35	55	-0.963	79.2	inactive
PLEKHA8P1 (pleckstrin homology domain containing A8 pseudogene 1)	1	-0.308	75.8	0.00806	84.5	inactive
PLEKHA8P1 (pleckstrin homology domain containing A8 pseudogene 1)	2	-0.129	79.3	-0.167	92.6	inactive
PLEKHA8P1 (pleckstrin homology domain containing A8 pseudogene 1)	3	1.05	103	0.524	100	inactive
PPT2 (palmitoyl-protein thioesterase 2)	1	4.54	172	2.91	89.5	active
PPT2 (palmitoyl-protein thioesterase 2)	2	-0.0783	80.3	-0.153	93.5	inactive
PPT2 (palmitoyl-protein thioesterase 2)	3	0.143	84.7	-0.582	110	inactive
PLK2 (polo like kinase 2)	1	-0.264	76.6	-0.477	97.1	inactive
PLK2 (polo like kinase 2)	2	-0.138	79.1	-0.293	95.5	inactive
PLK2 (polo like kinase 2)	3	1.4	110	1.95	73.4	inactive
JUND (JunD proto-oncogene, AP-1 transcription factor subunit)	1	-0.224	77.4	-0.172	90.5	inactive
JUND (JunD proto-oncogene, AP-1 transcription factor subunit)	2	2.13	124	2.07	80.5	inactive
JUND (JunD proto-oncogene, AP-1 transcription factor subunit)	3	1.87	119	1.16	98.1	inactive
NUBP1 (NUBP iron-sulfur cluster assembly factor 1, cytosolic)	1	-0.387	74.2	-0.821	103	inactive
NUBP1 (NUBP iron-sulfur cluster assembly factor 1, cytosolic)	2	-0.464	72.7	-0.514	93	inactive
NUBP1 (NUBP iron-sulfur cluster assembly factor 1, cytosolic)	3	0.11	84.1	-0.59	110	inactive
PCAT18 (prostate cancer associated transcript 18)	1	1.68	115	1.32	91	inactive
PCAT18 (prostate cancer associated transcript 18)	2	-2.07	40.6	-1.44	66.3	inactive
PCAT18 (prostate cancer associated transcript 18)	3	0.734	96.5	0.621	91.6	inactive
GRPR (gastrin releasing peptide receptor)	1	0.507	92	-0.0319	104	inactive
GRPR (gastrin releasing peptide receptor)	2	-0.269	76.5	-0.303	92.6	inactive
GRPR (gastrin releasing peptide receptor)	3	-1.62	49.7	-1.76	88.3	inactive
MAK16 (MAK16 homolog)	1	-2.54	31.5	-2.88	75.1	inactive
MAK16 (MAK16 homolog)	2	-2.2	38.1	-1.57	64.3	inactive
MAK16 (MAK16 homolog)	3	-2.14	39.3	-2.23	79	inactive
ADAD2 (adenosine deaminase domain containing 2)	1	1.56	113	0.424	113	inactive
ADAD2 (adenosine deaminase domain containing 2)	2	0.0694	83.3	1.24	67.1	inactive
ADAD2 (adenosine deaminase domain containing 2)	3	3.08	143	3.41	65.2	active
MIR9-1HG (MIR9-1 host gene)	1	-0.0362	81.2	-0.65	108	inactive
MIR9-1HG (MIR9-1 host gene)	2	-1.02	61.5	-0.544	79.3	inactive
MIR9-1HG (MIR9-1 host gene)	3	-1.57	50.8	-1.03	74.5	inactive

An excerpt from above, reduced to “viable cells, % of control”:
PCAT18 (prostate cancer associated transcript 18) #1	91
PCAT18 (prostate cancer associated transcript 18) #2	66.3
PCAT18 (prostate cancer associated transcript 18) #3	91.6
GRPR (gastrin releasing peptide receptor) #1	104
GRPR (gastrin releasing peptide receptor) #2	92.6
GRPR (gastrin releasing peptide receptor) #3	88.3
MAK16 (MAK16 homolog) #1	75.1
MAK16 (MAK16 homolog) #2	64.3
MAK16 (MAK16 homolog) #3	79

The listing continues.
gene	reagent no.	total luciferase, z-score	total luciferase, % of control	luciferase per cell, z-score	viable cells, % of control	call
MDP1 (magnesium dependent phosphatase 1)	1	0.869	99.2	1.6	72.8	inactive
MDP1 (magnesium dependent phosphatase 1)	2	0.509	92	-0.0735	105	inactive
MDP1 (magnesium dependent phosphatase 1)	3	4.08	163	2.42	96.5	active
PDLIM5 (PDZ and LIM domain 5)	1	-0.978	62.4	-0.0169	70.1	inactive
PDLIM5 (PDZ and LIM domain 5)	2	0.452	90.9	0.686	84.8	inactive
PDLIM5 (PDZ and LIM domain 5)	3	-0.0356	81.2	-0.202	95.7	inactive
AKAP14 (A-kinase anchoring protein 14)	1	0.246	86.8	0.151	93.2	inactive
AKAP14 (A-kinase anchoring protein 14)	2	0.908	100	0.683	93.3	inactive
AKAP14 (A-kinase anchoring protein 14)	3	-0.206	77.8	-0.354	95.4	inactive
NKIRAS2 (NFKB inhibitor interacting Ras like 2)	1	-0.589	70.2	-0.669	93.5	inactive
NKIRAS2 (NFKB inhibitor interacting Ras like 2)	2	-1.04	61.3	-1.55	103	inactive
NKIRAS2 (NFKB inhibitor interacting Ras like 2)	3	-0.896	64.1	-1.17	97.3	inactive
USP13 (ubiquitin specific peptidase 13)	1	-0.135	79.2	-0.419	98.8	inactive
USP13 (ubiquitin specific peptidase 13)	2	-1.17	58.7	-1.43	95.6	inactive
USP13 (ubiquitin specific peptidase 13)	3	-0.0576	80.7	-0.466	102	inactive
PCDHA1 (protocadherin alpha 1)	1	-0.264	76.6	-0.866	108	inactive
PCDHA1 (protocadherin alpha 1)	2	-0.675	68.5	-0.96	98.5	inactive
PCDHA1 (protocadherin alpha 1)	3	0.474	91.3	-0.226	108	inactive
EPM2AIP1 (EPM2A interacting protein 1)	1	-1.08	60.4	0.593	57.8	inactive
EPM2AIP1 (EPM2A interacting protein 1)	2	2.84	138	2.7	75.9	inactive
EPM2AIP1 (EPM2A interacting protein 1)	3	-0.997	62.1	-0.635	82	inactive
MORN4 (MORN repeat containing 4)	1	-0.466	72.6	-0.356	89.1	inactive
MORN4 (MORN repeat containing 4)	2	-0.602	69.9	0.724	64.6	inactive
MORN4 (MORN repeat containing 4)	3	-0.568	70.6	-0.144	81.9	inactive
RNF8 (ring finger protein 8)	1	0.3	87.8	0.323	90.2	inactive
RNF8 (ring finger protein 8)	2	-0.46	72.7	-0.153	84.6	inactive
RNF8 (ring finger protein 8)	3	-0.606	69.8	-0.509	89.2	inactive
YIPF3 (Yip1 domain family member 3)	1	0.269	87.2	1.11	72.8	inactive
YIPF3 (Yip1 domain family member 3)	2	-0.0679	80.5	-0.699	108	inactive
YIPF3 (Yip1 domain family member 3)	3	-0.568	70.6	-0.621	92.9	inactive
POLR2J2 (RNA polymerase II subunit J2)	1	-1.25	57.1	-0.595	74.6	inactive
POLR2J2 (RNA polymerase II subunit J2)	2	-0.397	74	-0.507	94.5	inactive
POLR2J2 (RNA polymerase II subunit J2)	3	-0.705	67.9	-0.817	94	inactive
OAZ1 (ornithine decarboxylase antizyme 1)	1	3.99	161	2.44	94.8	active
OAZ1 (ornithine decarboxylase antizyme 1)	2	2.3	128	1.55	95	inactive
OAZ1 (ornithine decarboxylase antizyme 1)	3	3.15	145	1.75	102	active
MS4A4A (membrane spanning 4-domains A4A)	1	1.17	105	2.5	60.8	inactive
MS4A4A (membrane spanning 4-domains A4A)	2	0.35	88.8	1.83	61.4	inactive
MS4A4A (membrane spanning 4-domains A4A)	3	-0.913	63.7	-1.31	100	inactive
RASL11B (RAS like family 11 member B)	1	0.179	85.4	-0.0479	96.7	inactive
RASL11B (RAS like family 11 member B)	2	-0.518	71.6	-0.301	86.6	inactive
RASL11B (RAS like family 11 member B)	3	-0.642	69.1	-0.396	85.7	inactive
